Holding throughout (assay): affinity purification with mass spectrometry
The target of assay [1] is Nup170-ZZ (S. cerevisiae) (UniProt P38181).
For assay [2], the target named is T1, Brl1-ZZ (S. cerevisiae) (UniProt P38770).
T1 sequence: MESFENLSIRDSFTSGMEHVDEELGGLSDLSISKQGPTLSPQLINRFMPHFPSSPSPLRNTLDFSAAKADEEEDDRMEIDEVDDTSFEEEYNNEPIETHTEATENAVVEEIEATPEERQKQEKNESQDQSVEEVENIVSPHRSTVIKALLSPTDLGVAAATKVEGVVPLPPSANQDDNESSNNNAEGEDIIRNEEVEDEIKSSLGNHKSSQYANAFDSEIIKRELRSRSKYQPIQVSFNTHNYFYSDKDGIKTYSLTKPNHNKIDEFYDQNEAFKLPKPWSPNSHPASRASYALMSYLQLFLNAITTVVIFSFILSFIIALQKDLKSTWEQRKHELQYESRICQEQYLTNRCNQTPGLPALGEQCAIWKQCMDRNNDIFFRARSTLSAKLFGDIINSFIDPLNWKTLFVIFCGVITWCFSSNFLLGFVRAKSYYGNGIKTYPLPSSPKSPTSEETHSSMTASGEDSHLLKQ

Chains of the proteins cited; added tags and fusions are not shown.
UniProt P38181: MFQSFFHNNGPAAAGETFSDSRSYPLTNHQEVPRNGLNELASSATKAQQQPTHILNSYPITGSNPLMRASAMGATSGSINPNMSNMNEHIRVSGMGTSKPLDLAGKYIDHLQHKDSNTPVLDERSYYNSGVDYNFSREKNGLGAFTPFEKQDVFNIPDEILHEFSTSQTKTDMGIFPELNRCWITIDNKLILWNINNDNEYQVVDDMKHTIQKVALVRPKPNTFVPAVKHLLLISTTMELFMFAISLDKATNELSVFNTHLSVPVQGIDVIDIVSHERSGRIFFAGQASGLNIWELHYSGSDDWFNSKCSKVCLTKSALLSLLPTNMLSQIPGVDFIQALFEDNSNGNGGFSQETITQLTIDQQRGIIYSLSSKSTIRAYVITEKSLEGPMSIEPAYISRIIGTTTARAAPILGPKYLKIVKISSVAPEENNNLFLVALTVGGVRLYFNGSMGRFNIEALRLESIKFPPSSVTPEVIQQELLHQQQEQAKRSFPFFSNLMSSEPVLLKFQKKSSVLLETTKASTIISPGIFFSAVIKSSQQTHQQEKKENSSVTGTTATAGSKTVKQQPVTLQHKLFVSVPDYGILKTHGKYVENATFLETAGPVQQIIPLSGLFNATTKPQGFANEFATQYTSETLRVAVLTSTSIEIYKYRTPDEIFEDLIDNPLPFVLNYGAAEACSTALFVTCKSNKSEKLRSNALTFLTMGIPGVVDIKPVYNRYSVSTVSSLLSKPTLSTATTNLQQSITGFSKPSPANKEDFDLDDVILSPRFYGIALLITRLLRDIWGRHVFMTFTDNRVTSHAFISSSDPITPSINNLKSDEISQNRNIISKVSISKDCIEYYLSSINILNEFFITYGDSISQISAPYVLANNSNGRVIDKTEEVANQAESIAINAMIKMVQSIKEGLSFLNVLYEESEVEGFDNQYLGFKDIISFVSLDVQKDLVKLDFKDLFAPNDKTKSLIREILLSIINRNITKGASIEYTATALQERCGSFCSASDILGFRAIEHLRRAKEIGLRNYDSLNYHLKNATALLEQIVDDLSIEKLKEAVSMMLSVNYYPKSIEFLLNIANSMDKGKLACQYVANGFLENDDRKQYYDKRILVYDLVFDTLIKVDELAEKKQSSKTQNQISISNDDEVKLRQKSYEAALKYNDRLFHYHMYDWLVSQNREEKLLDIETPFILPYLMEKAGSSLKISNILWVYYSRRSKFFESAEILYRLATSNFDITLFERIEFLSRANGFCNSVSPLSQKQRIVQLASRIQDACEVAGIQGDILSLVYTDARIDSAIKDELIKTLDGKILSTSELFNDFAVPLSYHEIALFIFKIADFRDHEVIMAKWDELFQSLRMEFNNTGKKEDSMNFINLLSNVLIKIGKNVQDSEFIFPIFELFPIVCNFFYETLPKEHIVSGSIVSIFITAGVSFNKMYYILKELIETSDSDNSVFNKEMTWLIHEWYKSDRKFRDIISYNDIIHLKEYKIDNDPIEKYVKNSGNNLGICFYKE
UniProt P40477: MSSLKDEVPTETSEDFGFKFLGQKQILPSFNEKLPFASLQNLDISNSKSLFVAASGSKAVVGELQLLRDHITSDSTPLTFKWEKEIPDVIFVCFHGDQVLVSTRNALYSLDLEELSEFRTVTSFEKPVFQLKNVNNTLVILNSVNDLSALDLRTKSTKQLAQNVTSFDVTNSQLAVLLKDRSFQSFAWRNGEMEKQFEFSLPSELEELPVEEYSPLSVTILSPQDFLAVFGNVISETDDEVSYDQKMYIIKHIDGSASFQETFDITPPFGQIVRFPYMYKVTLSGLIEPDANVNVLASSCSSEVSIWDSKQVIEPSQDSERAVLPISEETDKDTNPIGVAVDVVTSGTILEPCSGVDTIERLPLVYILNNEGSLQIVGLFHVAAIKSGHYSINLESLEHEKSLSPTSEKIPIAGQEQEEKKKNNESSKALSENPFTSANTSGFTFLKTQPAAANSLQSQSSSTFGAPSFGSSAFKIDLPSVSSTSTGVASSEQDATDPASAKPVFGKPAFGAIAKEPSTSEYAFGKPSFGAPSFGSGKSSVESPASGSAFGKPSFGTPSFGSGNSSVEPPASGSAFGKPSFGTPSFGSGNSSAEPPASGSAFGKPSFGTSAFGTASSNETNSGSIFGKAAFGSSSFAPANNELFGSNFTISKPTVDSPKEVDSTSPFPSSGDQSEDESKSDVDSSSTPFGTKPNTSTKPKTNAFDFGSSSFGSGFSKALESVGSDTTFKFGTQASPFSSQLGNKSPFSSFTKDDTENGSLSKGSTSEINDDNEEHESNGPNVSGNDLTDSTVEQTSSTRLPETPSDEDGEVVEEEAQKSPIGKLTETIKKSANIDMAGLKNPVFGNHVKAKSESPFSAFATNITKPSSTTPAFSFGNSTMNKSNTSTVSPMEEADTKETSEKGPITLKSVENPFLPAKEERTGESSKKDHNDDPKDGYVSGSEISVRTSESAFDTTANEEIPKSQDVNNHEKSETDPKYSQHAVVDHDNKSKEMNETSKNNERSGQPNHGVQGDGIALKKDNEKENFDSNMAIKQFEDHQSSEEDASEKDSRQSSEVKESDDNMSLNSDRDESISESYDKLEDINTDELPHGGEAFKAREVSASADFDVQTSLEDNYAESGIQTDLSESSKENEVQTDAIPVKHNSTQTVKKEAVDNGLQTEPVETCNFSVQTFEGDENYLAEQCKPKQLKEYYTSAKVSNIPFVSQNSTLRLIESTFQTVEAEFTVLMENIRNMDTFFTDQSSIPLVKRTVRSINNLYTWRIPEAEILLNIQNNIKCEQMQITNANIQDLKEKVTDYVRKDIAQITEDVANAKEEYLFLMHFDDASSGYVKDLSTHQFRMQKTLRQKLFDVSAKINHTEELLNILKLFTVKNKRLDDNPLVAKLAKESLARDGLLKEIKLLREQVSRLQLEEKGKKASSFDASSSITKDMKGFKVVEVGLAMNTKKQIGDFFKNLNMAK
UniProt P40457: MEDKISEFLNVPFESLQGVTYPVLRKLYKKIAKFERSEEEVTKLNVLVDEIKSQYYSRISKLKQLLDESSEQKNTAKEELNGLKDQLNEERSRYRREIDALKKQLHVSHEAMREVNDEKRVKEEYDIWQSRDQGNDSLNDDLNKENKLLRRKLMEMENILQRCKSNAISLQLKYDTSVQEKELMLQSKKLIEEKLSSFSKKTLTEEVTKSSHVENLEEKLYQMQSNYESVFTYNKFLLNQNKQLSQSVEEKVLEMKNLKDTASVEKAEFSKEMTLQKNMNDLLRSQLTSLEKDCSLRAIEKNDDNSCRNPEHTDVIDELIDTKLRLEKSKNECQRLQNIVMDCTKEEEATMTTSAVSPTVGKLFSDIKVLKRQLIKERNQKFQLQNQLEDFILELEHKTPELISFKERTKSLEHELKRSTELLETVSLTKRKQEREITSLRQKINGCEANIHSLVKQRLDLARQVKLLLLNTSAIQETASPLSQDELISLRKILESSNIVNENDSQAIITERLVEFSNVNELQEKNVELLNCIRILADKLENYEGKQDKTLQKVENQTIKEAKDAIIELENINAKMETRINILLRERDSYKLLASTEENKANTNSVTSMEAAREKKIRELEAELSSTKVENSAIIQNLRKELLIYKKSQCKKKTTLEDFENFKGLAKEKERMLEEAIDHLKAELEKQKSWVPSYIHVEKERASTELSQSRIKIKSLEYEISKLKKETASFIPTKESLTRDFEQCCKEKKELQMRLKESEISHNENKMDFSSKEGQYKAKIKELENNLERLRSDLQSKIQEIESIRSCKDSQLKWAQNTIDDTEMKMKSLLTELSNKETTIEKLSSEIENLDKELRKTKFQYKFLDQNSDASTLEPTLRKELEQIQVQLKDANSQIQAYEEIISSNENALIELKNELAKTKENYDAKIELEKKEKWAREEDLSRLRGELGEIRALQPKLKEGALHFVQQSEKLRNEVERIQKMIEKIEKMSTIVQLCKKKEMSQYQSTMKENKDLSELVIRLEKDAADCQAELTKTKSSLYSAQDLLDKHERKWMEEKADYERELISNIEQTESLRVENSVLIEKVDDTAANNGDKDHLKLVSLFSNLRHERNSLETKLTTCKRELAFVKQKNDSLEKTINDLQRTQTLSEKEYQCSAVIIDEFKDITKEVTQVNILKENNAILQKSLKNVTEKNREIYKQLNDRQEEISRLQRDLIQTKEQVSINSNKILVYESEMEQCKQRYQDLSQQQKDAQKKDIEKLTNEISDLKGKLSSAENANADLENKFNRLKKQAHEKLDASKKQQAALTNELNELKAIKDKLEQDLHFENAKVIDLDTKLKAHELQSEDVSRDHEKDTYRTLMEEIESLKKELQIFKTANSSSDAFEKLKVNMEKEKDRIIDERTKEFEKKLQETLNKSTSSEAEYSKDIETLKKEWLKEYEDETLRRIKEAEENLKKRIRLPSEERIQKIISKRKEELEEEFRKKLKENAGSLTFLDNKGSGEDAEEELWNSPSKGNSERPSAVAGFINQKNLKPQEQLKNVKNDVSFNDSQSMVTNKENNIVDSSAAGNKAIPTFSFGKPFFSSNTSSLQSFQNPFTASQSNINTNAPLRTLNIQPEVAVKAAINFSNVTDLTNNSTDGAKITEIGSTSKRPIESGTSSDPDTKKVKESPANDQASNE
UniProt P39685: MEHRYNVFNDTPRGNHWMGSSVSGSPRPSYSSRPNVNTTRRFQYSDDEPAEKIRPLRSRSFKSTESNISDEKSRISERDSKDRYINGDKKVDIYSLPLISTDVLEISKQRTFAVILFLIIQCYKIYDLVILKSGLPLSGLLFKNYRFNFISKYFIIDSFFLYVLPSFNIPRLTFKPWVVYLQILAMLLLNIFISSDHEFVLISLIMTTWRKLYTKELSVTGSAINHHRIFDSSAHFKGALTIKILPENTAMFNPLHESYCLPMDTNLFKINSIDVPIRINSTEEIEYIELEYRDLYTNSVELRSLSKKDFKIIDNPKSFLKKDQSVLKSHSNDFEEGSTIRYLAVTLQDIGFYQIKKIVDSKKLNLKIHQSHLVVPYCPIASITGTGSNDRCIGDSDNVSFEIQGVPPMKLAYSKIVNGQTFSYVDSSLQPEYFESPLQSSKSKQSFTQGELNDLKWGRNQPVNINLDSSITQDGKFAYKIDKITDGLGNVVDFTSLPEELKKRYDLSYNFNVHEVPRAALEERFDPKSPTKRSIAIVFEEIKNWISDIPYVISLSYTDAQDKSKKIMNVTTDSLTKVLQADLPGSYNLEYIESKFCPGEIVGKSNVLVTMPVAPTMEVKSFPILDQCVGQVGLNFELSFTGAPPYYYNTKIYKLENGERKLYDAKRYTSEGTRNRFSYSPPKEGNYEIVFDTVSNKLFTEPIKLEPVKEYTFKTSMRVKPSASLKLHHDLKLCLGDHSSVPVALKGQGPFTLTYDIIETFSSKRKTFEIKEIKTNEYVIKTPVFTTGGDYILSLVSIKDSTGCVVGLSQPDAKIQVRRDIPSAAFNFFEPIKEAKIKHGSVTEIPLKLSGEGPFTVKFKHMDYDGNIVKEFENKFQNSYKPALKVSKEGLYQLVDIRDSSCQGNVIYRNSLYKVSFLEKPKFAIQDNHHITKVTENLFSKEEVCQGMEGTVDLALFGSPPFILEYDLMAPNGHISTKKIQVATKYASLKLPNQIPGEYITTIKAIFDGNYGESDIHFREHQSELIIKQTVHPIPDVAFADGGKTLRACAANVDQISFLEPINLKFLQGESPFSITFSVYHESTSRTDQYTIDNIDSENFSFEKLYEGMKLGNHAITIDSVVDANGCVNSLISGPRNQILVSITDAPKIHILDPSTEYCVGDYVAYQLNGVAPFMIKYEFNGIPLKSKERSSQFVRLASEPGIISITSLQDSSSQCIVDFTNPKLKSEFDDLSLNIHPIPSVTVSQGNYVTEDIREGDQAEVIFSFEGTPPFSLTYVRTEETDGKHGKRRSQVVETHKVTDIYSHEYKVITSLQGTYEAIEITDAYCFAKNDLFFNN

In assay [3] the target is T1, Brl1-ZZ (S. cerevisiae). This is another data set of the same source.

Like-named read-outs stand apart in the source and are kept apart here. Results are given in words; binding and its absence hold for the method and conditions named. In cells and extracts the contact can be indirect. Here binding means that the protein was enriched with, or labelled near, the bait; the list need not be complete.

Mlp1 (from UniProt Q02455 1-1875): in assay [1], the binding result is “binds”.

For Nup159 (from UniProt P40477 1-1460), the binding entry in the assay with Brl1-ZZ (S. cerevisiae) [2] was “binds”.

Take Mlp2 (from UniProt P40457 1-1679): the binding result in assay [1] is listed as “binds”.

Pom152 (from UniProt P39685 1-1337): in the assay with Brl1-ZZ (S. cerevisiae) [2], the binding result was “binds”.

B1: Kap123 (protein, UniProt P40069 1-1113)
chain: MDQQFLSQLEQTLHAITSGVGLKEATKTLQTQFYTQPTTLPALIHILQNGSDDSLKQLAGVEARKLVSKHWNAIDESTRASIKTSLLQTAFSEPKENVRHSNARVIASIGTEELDGNKWPDLVPNLIQTASGEDVQTRQTAIFILFSLLEDFTSSLSGHIDDFLALFSQTINDPSSLEIRSLSAQALNHVSALIEEQETINPVQAQKFAASIPSVVNVLDAVIKADDTMNAKLIFNCLNDFLLLDSQLTGNFIVDLIKLSLQIAVNSEIDEDVRVFALQFIISSLSYRKSKVSQSKLGPEITVAALKVACEEIDVDDELNNEDETGENEENTPSSSAIRLLAFASSELPPSQVASVIVEHIPAMLQSANVFERRAILLAISVAVTGSPDYILSQFDKIIPATINGLKDTEPIVKLAALKCIHQLTTDLQDEVAKFHEEYLPLIIDIIDSAKNIVIYNYATVALDGLLEFIAYDAIAKYLDPLMNKLFYMLESNESSKLRCAVVSAIGSAAFAAGSAFIPYFKTSVHYLEKFIQNCSQIEGMSEDDIELRANTFENISTMARAVRSDAFAEFAEPLVNSAYEAIKTDSARLRESGYAFIANLAKVYGENFAPFLKTILPEIFKTLELDEYQFNFDGDAEDLAAFADSANEEELQNKFTVNTGISYEKEVASAALSELALGTKEHFLPYVEQSLKVLNEQVDESYGLRETALNTIWNVVKSVLLASKVEPESYPKGIPASSYVNADVLAVIQAARETSMGNLSDEFETSMVITVMEDFANMIKQFGAIIIMDNGDSSMLEALCMQVLSVLKGTHTCQTIDIEEDVPRDEELDASETEATLQDVALEVLVSLSQALAGDFAKVFDNFRPVVFGLFQSKSKNKRSSAVGAASELALGMKEQNPFVHEMLEALVIRLTSDKSLEVRGNAAYGVGLLCEYASMDISAVYEPVLKALYELLSAADQKALAAEDDEATREIIDRAYANASGCVARMALKNSALVPLEQTVPALLAHLPLNTGFEEYNPIFELIMKLYQENSPVITNETPRIIEIFSAVFTKENDRIKLEKESTLGREENMERLKQFQTEEMKHKVIELLKYLNTTYNGIVAQNPVLAAVIA
B1: the binding result with Brl1-ZZ (S. cerevisiae) [3] is reported as “binds”.

B2: Mex67 (protein, UniProt Q99257 1-599)
chain: MSGFHNVGNINMMAQQQMQQNRIKISVRNWQNATMNDLINFISRNARVAVYDAHVEGPLVIGYVNSKAEAESLMKWNGVRFAGSNLKFELLDNNGASAGTSDTISFLRGVLLKRYDPQTKLLNLGALHSDPELIQKGVFSSISTQSKMFPAMMKLASTEKSLIVESVNLADNQLKDISAISTLAQTFPNLKNLCLANNQIFRFRSLEVWKNKFKDLRELLMTNNPITTDKLYRTEMLRLFPKLVVLDNVIVRDEQKLQTVYSLPMKIQQFFFENDALGQSSTDFATNFLNLWDNNREQLLNLYSPQSQFSVSVDSTIPPSTVTDSDQTPAFGYYMSSSRNISKVSSEKSIQQRLSIGQESINSIFKTLPKTKHHLQEQPNEYSMETISYPQINGFVITLHGFFEETGKPELESNKKTGKNNYQKNRRYNHGYNSTSNNKLSKKSFDRTWVIVPMNNSVIIASDLLTVRAYSTGAWKTASIAIAQPPQQQASVLPQVASMNPNITTPPQPQPSVVPGGMSIPGAPQGAMVMAPTLQLPPDVQSRLNPVQLELLNKLHLETKLNAEYTFMLAEQSNWNYEVAIKGFQSSMNGIPREAFVQF
Consider B2, for which the binding entry with Brl1-ZZ (S. cerevisiae) [3] is reported as “binds”.

The record behind these values is publication doi:10.1101/2022.03.04.483005.
